About 210 (0.4%) of roughly 52,000 sequences were called active.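 How the source made its calls: active means gene whose silencing raises cell survival under the drug, median off-target-corrected z-score across its silencing RNAs 2 or more; inactive means the rest.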 The list shows a part of the results.

The nature of this experiment: Resistance to Poly (ADP-Ribose) Polymerase inhibitor: Gene Identification via Genome-wide siRNA Screen. The conditions noted are these: mouse BRCA2 R2336H ES cells, olaparib, CellTiter-Glo viability; active compounds read high. The procedure, abridged: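 Genome-wide siRNA screen (3 siRNAs/gene, 20 nM) in mouse ES cells carrying hypomorphic BRCA2 R2336H; olaparib 500 nM added 48 h post-transfection, CellTiter-Glo viability 72 h later. Normalized to plate-median negative control; MAD z-scores, gene median, seed-adjusted.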
In the case of GGUUCUAGGAAAAUUAGGUTT against Olfr575, the z-score is inactive: 0.387.
The result for GGAAAUGUCAUGACCUUGATT against Tnfaip6 reads inactive: -1.35.
As for “GCUGUCCUUUUGAAAGAUATT against 6530413N01Rik”, the z-score is inactive: 0.563.
With GGUCACUGUCCACAUUUAUTT against Pitrm1, the z-score is inactive: -2.1.
As to GGUGGAUGUCACCAGCAAGTT against Sh3gl1, the z-score was inactive: 0.112.
In the case of GGAGUAUUUCCAAACCUAUTT against Sdro, the z-score is inactive: 0.426.
For GGAUGACGAAGCCUAUGAUTT against Btbd14a, the z-score is inactive: -0.576.
The result for GGAAGCAAUUUUUUACUCATT against Itm2a reads inactive: -0.284; that for UUCAUGUAGGUUUAUUAUUTT against Olfr194, inactive: 0.667; that for “GGAAGAGAUCUUAAACUUATT against 4931412G03Rik”, inactive: 0.627.
To GGCAAGAUAAGCUAAAUCCTT against Gpr63 belongs inactive: 1.35.
To CCGGAUGCUGGGCUUAGAATT against Nmb belongs inactive: -1.17; to CCUGUAGAUACCUCCCUACTT against Flt1, inactive: -1.69; to GGCAAUGGAAGGAAUCUUCTT against Sdf2l1, inactive: 0.384.
As for GGAGAUGUACCACAAUGCCTT against Isp2, the z-score was inactive: 1.34.
CCAAAUUUCAUAGUUUGGGTT against DXImx47e: the z-score was inactive: -0.522.
Consider “GGAGACCGUAGUGUUCAUCTT against 4933400F01Rik”, for which the z-score was inactive: 2.01.
The result for CGACUACCUGCUACAUGGCTT against Adipor1 reads inactive: 0.571; that for “GCAAGAAAAUUGCACGUUGTT against 1110007C24Rik”, inactive: 0.834; that for GGAGCUCUGGGACAAAUUCTT against Tbx20, inactive: -0.79.
The result for “CCUGAACCAUGUUGAAUAUTT against 2610306H15Rik” reads inactive: -1.07; that for GGUGCGCUGAGAAAACUGATT against Olfr1402, inactive: 0.154; that for CCGAACUUUUUCAACAAAGTT against Eif4g2, inactive: -1.38.
To GGACCAGCUUUUCAACAUUTT against F8 belongs inactive: -0.765.
Consider GGUAUGUACUACAAACAAUTT against Pigl, for which the z-score was inactive: 1.02.
The result for “GGGACUAGACAUUUCUGUGTT against 1810046J19Rik” reads inactive: 0.996; that for CCAUCUCAUCCCGAGUUAUTT against BC024502, inactive: 1.75.
As to “GCUAGGAAGCAGUUAAUGATT against C330046L10Rik”, the z-score is inactive: 0.0162.
The result for “GCCCUCCAACCUCGAUAACTT against D430041B17” reads inactive: 1.53; that for “GGUCCUGUCUUUACAAUGUTT against C230094A16Rik”, inactive: -1.13.
In the case of GGUUAUCAUCUUGUGAAAATT against Srpk1, the z-score is inactive: 0.617.
On to GGACAUCUUCAUUUACAGATT against Golga4, for which the z-score was inactive: -0.278.
In the case of CCCUAGAAUUAUAUCCUGUTT against Col4a1, the z-score is inactive: -0.964.
GGUGGUAACUACUGACAGCTT against Aebp1: the z-score is inactive: -0.601.
Turning to GGUGUGACAUUGACCAUAGTT against Sil, the z-score is inactive: 0.973.
For “GGAUAUCAAAGACAAAGCATT against 3100002B05Rik”, the z-score is inactive: 0.612.
The result for GGUACAACCUCGAAACUGGTT against Brp44l reads inactive: 0.44; that for GGAAUACUGAAUUUAAGGATT against Olfr1416, inactive: 0.454.
As to GGCAGUAAGGCUCCAAUCUTT against Tcp10a, the z-score is inactive: -1.46.
As for GGGAUCAGUGGAGUACUACTT against Ear6, the z-score was inactive: 0.0069.
The result for “GGAGAAAGCCAAGAAGAAUTT against 1700003M02Rik” reads inactive: -0.399; that for “GGCUUUCAGGCUUUUUGCATT against 9230117E20Rik”, inactive: 0.224; that for GGAUCAGAUUAUUGAGAUGTT against Smfn, inactive: -0.181.
In the case of “GGCCCAAGCUCAACACAAUTT against 2610208M17Rik”, the z-score is inactive: 1.
GCCUGACUAUGCUAAAGCUTT against Cyp4b1: the z-score is inactive: -0.982.
As for GCCUGAUUCAGAGUAUAAATT against Col14a1, the z-score is inactive: -0.179.
As to GGUGGAUUUUUUCUAAUACTT against Star, the z-score was inactive: -0.779.
The result for GGCCUAUUUAACUAUAGUGTT against Anxa13 reads inactive: 1.09.
To “GGAGUGUGCCCUGAAAGAUTT against 5430413I02Rik” belongs inactive: -0.00734; to GGUCAGCAAUGGAAGUAAUTT against Onecut1, inactive: 1.17; to GGGUGUCACAAAAUAAAAUTT against AI256711, inactive: -1.52.
The result for CCGACUCUAACUGUGUCAGTT against BC025458 reads inactive: -0.0633.
For the sequence GGGUAUCUGAUUUAUAAGCTT against Mageh1, the z-score was inactive: 0.315.
On to GGUAGAGGAUCUCUCUAAATT against Fbxo44, for which the z-score was inactive: 0.327.
To CCCAAAAAGUUUUGCUAACTT against Ing1l belongs inactive: 0.491; to “GCUGCUGAUCAGUUCGAUCTT against B230219D22Rik”, inactive: 0.561; to GAAUCUCCAGAACCUAUUUTT against Pln, inactive: -0.881.
Turning to “CCUAAGAUUUUGGAACAAATT against 2610019I03Rik”, the z-score was inactive: -0.0808.
To CCCUAGUUACCAAUUCCACTT against Olfr293 belongs inactive: 0.9.
With GCUAAAUCUCAAUGACCACTT against Kcnn3, the z-score was inactive: 1.51.
Regarding GGGAUCAAUGUGGACAGUUTT against Icosl, the z-score was inactive: -1.96.
To GGAAUCCACGACAUGCUAGTT against Pacrg belongs inactive: 0.439; to “CCUGUACGUAUUUACAACUTT against 2410004B18Rik”, inactive: 1.16.
On to GCCUAUACACUUGGUAUUGTT against Tebp, for which the z-score was inactive: 0.671.
To GGCACAGUGUGGAAAAGUUTT against Cst7 belongs inactive: -2.35; to GCAGGGUUUUUCCAAUAUATT against Asah2, inactive: -0.575; to “GGUGCAGUUUAAGAGAGAATT against C630016B22Rik”, inactive: 0.153.
To GACUGAGCUUCUGUGAUGGTT against Olfr921 belongs inactive: -0.9; to GCAUCAAGCCUGGAGAUUCTT against Upf3b, inactive: -1.45; to GGAAAUGGACCUUCAAAUCTT against Ppm1h, inactive: 0.328.
For the sequence “GGAAGUGAUGUACUUCCAATT against 1810019P04Rik”, the z-score was inactive: 0.578.
The result for GGACAAGAUAGGAGGAGACTT against Bat5 reads inactive: -1.19; that for GCUGCACUAAAAAUCAAUUTT against Sall1, inactive: 0.184.
To GGAUGGCUCUAUUUUUUUATT against BC037703 belongs inactive: 0.176; to “CCCUCGAGUGAUCAUUUUGTT against 3732419F12”, inactive: 0.464.
For the sequence GCAGCACAGAAAUGUUUCCTT against Tas2r106, the z-score is inactive: 0.64.
On to GGACCAUCCCUUCUUCUAUTT against Cabc1, for which the z-score was inactive: 0.0557.
For CCAUUUUUCAGAUUGUGAUTT against Tnfaip8, the z-score is inactive: 0.48.
Take “GGAUAGAUGCAACAAGUUUTT against B130055L09Rik”: the z-score was inactive: -0.459.
Turning to GCAGAAAGCAUACGGAGGCTT against Nfatc2ip, the z-score was inactive: 0.801.
Take “CCUCCAAUCCGUUGAAGAATT against 8430426H19Rik”: the z-score is inactive: 0.853.
The result for “CCUAUCUCUUAGCAAAGAUTT against 2010003K11Rik” reads inactive: 0.523; that for GGUGGUCUCUGGCCUUUAUTT against Ccr8, inactive: -0.732; that for CGGUCUUCCUACUUUUGGUTT against Qars, inactive: -2.15.
For the sequence GGAGAUCCCUAUUAUAAAGTT against Ankfy1, the z-score is inactive: 2.4.
Regarding “CCGGCCUAUCAGAGAUUGCTT against 2200002J24Rik”, the z-score is inactive: 0.75.
Regarding GCCUUCGAGCUACGAUUAATT against Slc27a5, the z-score is inactive: -1.45.
The result for “GGAUAAUUUAAACAUGGGATT against 6030411F23Rik” reads inactive: -0.0054.
To AUACUGGCUACAGUUUUUGTT against Olfr834 belongs inactive: -0.593; to CCUGAGCCUGGUCUUAUGUTT against Olfr1423, inactive: -2.16.
For the sequence “GAUCGAAGCCUAAGACCGCTT against 1700006H02Rik”, the z-score is inactive: 0.661.
As for GGCAUUCAUGGAGACUGUGTT against Zfpl1, the z-score was inactive: -1.52.
CCCACAUUAAAUGAAUAGGTT against Traf4: the z-score is inactive: 0.126.
To GGCUCAGAUUGAUAGGAUATT against Gmfg belongs inactive: 0.877.
On to CGGUAUCUACAUCAUAAACTT against Lamr1, for which the z-score is inactive: -0.497.
As to GCAGGUUAAGUAGCUGACATT against Dnclic2, the z-score is inactive: -1.28.
To GCAGAAGUACGAAGGAGAATT against Abcd3 belongs inactive: -0.14; to GGAGAUAAAUCCUUUGCAUTT against Zfp119, inactive: 0.191.
The result for GGUGAAGUGUGUCAGUCUGTT against Orc6l reads inactive: -1.23; that for GGCUCAAGAAGAAGAAUGCTT against P2ry1, inactive: -2.15.
As to GGCAGUAACUCAUGUGCCUTT against Gtlf3b, the z-score was inactive: -0.173.
In the case of GGCAUUUUUCAUCGAGUCGTT against Pfkfb3, the z-score is inactive: -0.2.
The result for “GCUGGCUAGUUUGGGCAUATT against 0610009M14Rik” reads inactive: -0.192.

For the origin of these results see PubChem BioAssay AID1347423 (Functional Genomics Laboratory (NCATS/FGL), 2020).
